Tested on: mIK1
Assay: TaqMan analysis of mIK1 expression in mouse skin and wound biopsies
Assay type: in vivo, Maus
Details: for Rel. mIK1 cDNA Menge: BALB/c mice, Dexamethason 0,5 mg/kg i.p. twice daily for 5 days, control intact skin = 1

## C[C@@H]1C[C@H]2[C@@H]3CCC4=CC(=O)C=C[C@]4(C)[C@@]3(F)[C@@H](O)C[C@]2(C)[C@@]1(O)C(=O)CO [Dexamethason]
Dexamethason-treated, poorly healing wounds
  Anstieg der mIK1-Expression (Faktor), Wunde gegen intakte Haut: 2,2
Day 1 wound
  Rel. mIK1 cDNA Menge: 2,68
Intact skin
  Rel. mIK1 cDNA Menge: 1,20

— patent EP1345618B1, “CHLORZOXAZONE FOR THE TREATMENT OF PSORIASIS” (Switch Biotech Aktiengesellschaft, priority 2000, dated 2002)
